Measured values reported in PMC7819943, “Rice protein-binding microarrays: a tool to detect cis-acting elements near promoter regions in rice”.
The list shows a part of the results.

By UniProt entry, the sequences of proteins in these tests, tags left out.
UniProt Q0JBA9, entry or part of it: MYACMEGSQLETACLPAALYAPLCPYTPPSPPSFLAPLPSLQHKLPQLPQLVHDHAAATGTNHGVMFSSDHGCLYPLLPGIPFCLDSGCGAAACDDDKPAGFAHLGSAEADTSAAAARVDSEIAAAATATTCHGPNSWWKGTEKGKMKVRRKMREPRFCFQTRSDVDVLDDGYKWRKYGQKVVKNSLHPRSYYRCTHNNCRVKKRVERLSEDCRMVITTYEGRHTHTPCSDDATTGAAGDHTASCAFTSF

Target: OsWRKY34 (Oryza sativa, UniProt Q0JBA9 1-250)
Test: protein-binding microarray (RPBM); PBS, 2% BSA, 51.3 ng/ul salmon testes DNA, 50 uM zinc acetate, 200 nM TF, 25 C, 1 h; high values mean tight binding
Conditions: protein: recombinant; tags: N-terminal polyhistidine and DsRed monomer fusion (pET32a); label: CyDye5-dUTP incorporated in the synthesized complementary strand; 3' TTTTT single-stranded linker to array surface; dsDNA, one strand shown
Method in brief: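 Using Ni–NTA, transcription factors fused N-terminally to polyhistidine and DsRed were purified after expression in E. coli BL21-CodonPlus. These were incubated at 200 nM with a blocked, double-stranded custom Agilent array for 1 h at 25 °C in a buffer containing 50 µM zinc acetate, and the array was washed. The binding signal is per-feature fluorescence intensity (arbitrary units) on an Axon 4000B scanner.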

Sequence	binding signal
TTTGTTTTTTCTCTTTTTTTTTCCCGAATTCCCAGACCAACGGAGTCACCTAGTGCAG	9150 fluorescence intensity (a.u.)
TGTTCTTGCTACGCTGGGAGGGGAGGGGTGGCGCCGCGGCCGGAGTCACCTAGTGCAG	21700 fluorescence intensity (a.u.)
ACTAGTGGGAATTTCCCCTGCAAATTTACTGTCAGCTTTTCGGAGTCACCTAGTGCAG	8530 fluorescence intensity (a.u.)
TATCTTCTTCAGGGTCGACCTCTTGCCCTTCTCACGTTCGCGGAGTCACCTAGTGCAG	11800 fluorescence intensity (a.u.)
GGCTGTCCATATCGTTTACATATTGTGCACGTACGTACGCCGGAGTCACCTAGTGCAG	11500 fluorescence intensity (a.u.)
TCTGTCTTTGAACTCACATCAATTAGCTTAAGTTTCCATACGGAGTCACCTAGTGCAG	8850 fluorescence intensity (a.u.)
GCCATTAATACGGCAGGTCGCCCATCCCATCGCGTCTCCTCGGAGTCACCTAGTGCAG	8320 fluorescence intensity (a.u.)
GTCTGGTTTAGTTCCTAATTTTTTCTTCAAACTTTTAACTCGGAGTCACCTAGTGCAG	10300 fluorescence intensity (a.u.)
TGTGCAGTTTTGCTGTTTATGACTAGTTTACCTGTTGTCTCGGAGTCACCTAGTGCAG	10800 fluorescence intensity (a.u.)
CACTATTCCTTTCCGGATTGCTTCTGCGTTCTACTTGATGCGGAGTCACCTAGTGCAG	11000 fluorescence intensity (a.u.)
AATTTTATTGAGGCTAGGGAATTTGTTGTTGATCTCTGTCCGGAGTCACCTAGTGCAG	8170 fluorescence intensity (a.u.)
AATTCCGATCCCATTGGTCATTGACCACCGGGCTGGTTGCCGGAGTCACCTAGTGCAG	10600 fluorescence intensity (a.u.)
CCTTTCTGTTGTTTTAAGAGTCAATGTTGCACTTCATATCCGGAGTCACCTAGTGCAG	8780 fluorescence intensity (a.u.)
ATGCTAGGCCTCATTGTTTTCTTTGGTATTTTGAGTTCTCCGGAGTCACCTAGTGCAG	10100 fluorescence intensity (a.u.)
GTCCCGTATCATATTGCCGTCTCAGCGACCCAGCCGCCGCCGGAGTCACCTAGTGCAG	8080 fluorescence intensity (a.u.)
ACATATACTACACTTTAATATCTGATCCCACCTGTCATACCGGAGTCACCTAGTGCAG	9270 fluorescence intensity (a.u.)
TCGGTCCCTCAACATTTGACGTTGTTGACTTTTTAAAATTCGGAGTCACCTAGTGCAG	11400 fluorescence intensity (a.u.)
GTCGTCGTCTACTTCGCTGCCGCGTCCTCCATCCTCCATGCGGAGTCACCTAGTGCAG	12400 fluorescence intensity (a.u.)
CCTCGCGCCATCAACACAACCAACGTCCCATTGCCACCTTCGGAGTCACCTAGTGCAG	11300 fluorescence intensity (a.u.)
CATTTGATGGAGCTGGGCTTGTGGGTAATGTTAGCCTGTCCGGAGTCACCTAGTGCAG	8390 fluorescence intensity (a.u.)
TCAGCTTTCTCTGTTGATTCACCTGCCTTATCTGTTCTATCGGAGTCACCTAGTGCAG	8930 fluorescence intensity (a.u.)

Sequence	binding signal
ACCAAAACCAACCATTGACAATTTGACCTCTGCAATCTGTCGGAGTCACCTAGTGCAG	8710 fluorescence intensity (a.u.)
CCTCCGCCGCCTTCCACCCTCTCTCTCGAGAGCCCAGATCCGGAGTCACCTAGTGCAG	8570 fluorescence intensity (a.u.)
TATATGTTGATACATGTGCACTCTTCTAATCAAGTGATCACGGAGTCACCTAGTGCAG	9100 fluorescence intensity (a.u.)
CATTTTTCTTTGCCAACCGATCTGCCCGTCTCCCGCCGCCCGGAGTCACCTAGTGCAG	8920 fluorescence intensity (a.u.)
CTAGGTTTCCTATATTTCTTCACACATCAATCATTCTTTGCGGAGTCACCTAGTGCAG	9070 fluorescence intensity (a.u.)
CTCCACCTCTGATCCTACTCCGGCTCTCCGGCGACACCGCCGGAGTCACCTAGTGCAG	11400 fluorescence intensity (a.u.)
AGGTGGAGGTGGTCTCAAGGGAAGCATGCACTAGCTTTTACGGAGTCACCTAGTGCAG	8160 fluorescence intensity (a.u.)
TTTCTATATGGACTCTGCTTTTTCTTTTTCTCCGATTAATCGGAGTCACCTAGTGCAG	10600 fluorescence intensity (a.u.)
TTGAAATGTCATCTTCTCAGTTCAGCAGCTCCATTTGTTACGGAGTCACCTAGTGCAG	9920 fluorescence intensity (a.u.)
TGCATTGATCTTCCACAGAGCTTTCCAGCTTTTCTGACTCCGGAGTCACCTAGTGCAG	9470 fluorescence intensity (a.u.)
CGAGTGGTGGGGTGGGGAGTCGCGTGCCCGCGCCGAGACCCGGAGTCACCTAGTGCAG	11700 fluorescence intensity (a.u.)
TGTTTGGTAACTCGAGGGAAGGGGATTGGGAGTTTACACGCGGAGTCACCTAGTGCAG	8280 fluorescence intensity (a.u.)
AGGGTTTGGCACGGGCGGGGCGGAGGCGCGCTGCACACATCGGAGTCACCTAGTGCAG	12600 fluorescence intensity (a.u.)
TACGTCCGCGAATACTGCTTTGTTTTTTAGCGCTTGATCACGGAGTCACCTAGTGCAG	9320 fluorescence intensity (a.u.)
ACGGGCTTAAACACATCTTACATTCTCATCACCAAGCAAACGGAGTCACCTAGTGCAG	11400 fluorescence intensity (a.u.)
TTATAAATACATACTGCATCATTAATGTTTTCCTCACATTCGGAGTCACCTAGTGCAG	8480 fluorescence intensity (a.u.)
GAGAGGGGATGGGGTTGAGTGGTGGGGCCTATGATTGGCACGGAGTCACCTAGTGCAG	13300 fluorescence intensity (a.u.)
CACATCGTTTTTCCATGCACACGCTTCCTAAACTGCTAAACGGAGTCACCTAGTGCAG	8480 fluorescence intensity (a.u.)
CTCTCTCTCTCCTCTGCCTTTTTAAGCAGCCACACGTCGACGGAGTCACCTAGTGCAG	8160 fluorescence intensity (a.u.)
ATTTGATGCCACTTTTAATTTACTTTCCCATTTTAATGTACGGAGTCACCTAGTGCAG	8090 fluorescence intensity (a.u.)
TGTTAATTCTTACTGCCGGCACTTCTTTTTTTGCTGGACACGGAGTCACCTAGTGCAG	8450 fluorescence intensity (a.u.)

Sequence	binding signal
GATACTACCTCCGTCCCAAAATATAGCAACTTTTGATTATCGGAGTCACCTAGTGCAG	8120 fluorescence intensity (a.u.)
TGGTTTGCTCACTTCATCACAGGTTTGCTCCCATACTTCTCGGAGTCACCTAGTGCAG	10200 fluorescence intensity (a.u.)
AAAGCTCGATTTGTCGTACTCACACACCTCACCACACGCCCGGAGTCACCTAGTGCAG	8720 fluorescence intensity (a.u.)
AATATTTTAATGGGTGCAGTTTCCATGAGCTAATTTCCATCGGAGTCACCTAGTGCAG	9820 fluorescence intensity (a.u.)
AAGGAAGGTGGTTTGACTTTAGTTAGGCGTTTCATGAGCCCGGAGTCACCTAGTGCAG	8930 fluorescence intensity (a.u.)
TTCAGTTTTCTCTCGAGTCAACGGCGGTTTGGAAGCAGCACGGAGTCACCTAGTGCAG	8700 fluorescence intensity (a.u.)
TGGCTCAGCGACACCGCCCGTTCACACGCCTCCACTGCACCGGAGTCACCTAGTGCAG	8750 fluorescence intensity (a.u.)
ACTTGTCATTGGGTTTAGGTAACTCCTCAAGCTCATCAGACGGAGTCACCTAGTGCAG	8720 fluorescence intensity (a.u.)
ATAAATGACTTTTTACCTACTCCGCCACACCTTTTACTACCGGAGTCACCTAGTGCAG	8170 fluorescence intensity (a.u.)
TGTAAGTCATTCCACCATTTCCCACATTCATATTGATGCCCGGAGTCACCTAGTGCAG	8890 fluorescence intensity (a.u.)
TAGTTGTGGTGCTAATGTCTCTAACGGTTCTGCGGAGAATCGGAGTCACCTAGTGCAG	9660 fluorescence intensity (a.u.)
AAAACATACCACTTCAAATTTTTGTTCTTTTTCTTGTTTCCGGAGTCACCTAGTGCAG	10500 fluorescence intensity (a.u.)
CTGGATACTGCACAAGAGATGACAGTTCAACACTTGACAGCGGAGTCACCTAGTGCAG	9570 fluorescence intensity (a.u.)
TTGTTTGATATATTCTATTTGCTTTGATATCTTAGTATAGCGGAGTCACCTAGTGCAG	8390 fluorescence intensity (a.u.)
GAGAGATTCCTGGCTTCCTGCCTCACGCGCACGCACACCACGGAGTCACCTAGTGCAG	8230 fluorescence intensity (a.u.)
TGTGGTCAAATATTTTTGGGTTCAACTTCACCATTCCCTTCGGAGTCACCTAGTGCAG	10800 fluorescence intensity (a.u.)
ATCTATCCACGGTTCAGCTCTGCTATTGGTCTCAGTGTCCCGGAGTCACCTAGTGCAG	8140 fluorescence intensity (a.u.)
CGAAGGGGAGGGTATTTGGTTAATTGTGAAACGTAAAAGTCGGAGTCACCTAGTGCAG	10300 fluorescence intensity (a.u.)
CCACACCCTGATGGCGCCGCCATCGTTCTTTTCTGGAGTTCGGAGTCACCTAGTGCAG	9750 fluorescence intensity (a.u.)
GTTCCAAAGTTTTTTTTTTTCAAACTTTCAACTTTCCATCCGGAGTCACCTAGTGCAG	8400 fluorescence intensity (a.u.)
TACCGTCCGATCCGGCTCCCATCTATATATTCCACTCGCTCGGAGTCACCTAGTGCAG	9220 fluorescence intensity (a.u.)

Sequence	binding signal
AACGACCAATATTGGTATGTACTACCTCTGTTTCTTATTACGGAGTCACCTAGTGCAG	9420 fluorescence intensity (a.u.)
GCTTGGTCCATACCTTGTTTTCCTATCATCCACTGTCAATCGGAGTCACCTAGTGCAG	9390 fluorescence intensity (a.u.)
TTTTCACCAAACATGTTTGGGACCTTTGGGTAGGGGTGGGCGGAGTCACCTAGTGCAG	10600 fluorescence intensity (a.u.)
TACCTCTCACTCGTTCGACTTAAAGGACTGTTGTACCTGCCGGAGTCACCTAGTGCAG	9390 fluorescence intensity (a.u.)
CTCATCTCCCTTTCATATCCCCTGCTTCCTCTCCGTCCATCGGAGTCACCTAGTGCAG	10700 fluorescence intensity (a.u.)
CGGCAGCTTAATCCTCTCGTCATCTCCATCAATCCATCGTCGGAGTCACCTAGTGCAG	8110 fluorescence intensity (a.u.)
GAACTCCATTTTGCATTTTCGCTCCAGCTTTCACCCGTTTCGGAGTCACCTAGTGCAG	8040 fluorescence intensity (a.u.)
CGGATCAGTGCTTGTTCTATTATATCATATTGCTAGCCGACGGAGTCACCTAGTGCAG	8110 fluorescence intensity (a.u.)
AACAATGAACGGTCCAGATTTACTCTAAACCAATTTACCGCGGAGTCACCTAGTGCAG	8110 fluorescence intensity (a.u.)
TATTACACGCTCCCTTTCTTTGAGCGTATAGTTGAGAACACGGAGTCACCTAGTGCAG	8530 fluorescence intensity (a.u.)
ATCACCTTTGCCACCTCTCGCTACGCTATCCCCGTATAAACGGAGTCACCTAGTGCAG	10600 fluorescence intensity (a.u.)
AGTTTTGCCCATCTCGAAATCAGGTTTTGAGCTTAGCTGTCGGAGTCACCTAGTGCAG	9710 fluorescence intensity (a.u.)
CTTCTTCCATCCAACCCATTGCATGGTGTATTTTCCATATCGGAGTCACCTAGTGCAG	8320 fluorescence intensity (a.u.)
GGAAGATCCCTCGGCGTTTCTCACTGTTCTGTTGCCTTAACGGAGTCACCTAGTGCAG	14800 fluorescence intensity (a.u.)
TAACTGAAACCATTCTTCTCGTCGATCAAATCATCCAAGTCGGAGTCACCTAGTGCAG	9480 fluorescence intensity (a.u.)
GCTCATGTCTGACTCCTTTGTTTGCTCTTTGCTCATTTTACGGAGTCACCTAGTGCAG	8660 fluorescence intensity (a.u.)
AGTATGTACCTTTCGTTTTGACTTTGCCCTGCGAGCCATGCGGAGTCACCTAGTGCAG	12000 fluorescence intensity (a.u.)
CTCCACCGGCGAGTGCATCCGTACGGATCTCCCGGAGCTCCGGAGTCACCTAGTGCAG	8660 fluorescence intensity (a.u.)
CCCCATTTTTAAAACGAGTTGGAGCCAAACCCACTTCCAGCGGAGTCACCTAGTGCAG	8260 fluorescence intensity (a.u.)
ATTAATTTCTATTGGTCCAACTACATGCAATATTTATAACCGGAGTCACCTAGTGCAG	8130 fluorescence intensity (a.u.)
ATTTTGGTCAAATTTAAACTAATCTAAGTTTGACTAATTTCGGAGTCACCTAGTGCAG	8610 fluorescence intensity (a.u.)

Random excerpt: 3 entries already listed
Sequence	binding signal
CTCCACCGGCGAGTGCATCCGTACGGATCTCCCGGAGCTCCGGAGTCACCTAGTGCAG	8660 fluorescence intensity (a.u.)
AGTATGTACCTTTCGTTTTGACTTTGCCCTGCGAGCCATGCGGAGTCACCTAGTGCAG	12000 fluorescence intensity (a.u.)
TATTACACGCTCCCTTTCTTTGAGCGTATAGTTGAGAACACGGAGTCACCTAGTGCAG	8530 fluorescence intensity (a.u.)
